Measured data: PubChem BioAssay AID1259425 (University of Nebraska Medical Center, 2018)

Assay: 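Seek colon cancer weak points whose silencing resembles KSR1 loss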 (primary screen)
System: HCT116 human colon cancer cells
Knock-down reagent: siRNA pool against human genes, 50 nM siRNA
Detection: 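After 50 nM siRNA pool, branched-DNA assay measures six marker transcripts per well, minus blank, normalised to the geometric mean of two housekeeping transcripts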
Direction: BNIP3L mRNA: higher = more BNIP3L transcript after knockdown; NDRG1 mRNA: higher = more NDRG1 transcript after knockdown; BNIP3 mRNA: higher = more BNIP3 transcript after knockdown
The whole screen tested about 14,000 reagents; shown is a part drawn at random. Further read-outs or replicates are left out here. Not stated in the record: the time to read-out.

no.	target gene	BNIP3L mRNA, set 1	NDRG1 mRNA, set 1	BNIP3 mRNA, set 1
1	KIF13B	0.0673	0.081	0.263
2	SCN2A	0.0359	0.211	0.234
3	CATSPERB	0.0852	0.131	0.299
4	OSCAR	0.054	0.431	0.176
5	COL4A2	0.114	0.242	0.266
6	GPRC5D	0.179	0.172	0.44
7	SPOUT1	0.0585	0.193	0.264
8	GPR171	0.306	0.511	0.821
9	NELFB	0.0873	0.204	0.505
10	KCNN2	0.092	0.115	0.37
11	TMEM106C	0.0661	0.062	0.166
12	TRIL	0.143	0.513	0.25
13	UQCRFS1	0.0898	0.232	0.317
14	LIMCH1	0.264	0.62	0.374
15	APLP1	0.125	0.197	0.321
16	IL10RB	0.0936	0.186	0.262
17	AKAP14	0.194	0.293	0.311
18	ANO1	0.0655	0.0971	0.245
19	CASP1	0.0716	0.469	0.289
20	HAND2	0.0866	0.0768	0.331
21	ABCF3	0.489	0.448	0.66
22	CXCL5	0.0841	0.173	0.171
23	RAD54L2	0.0801	0.0968	0.242
24	PRSS16	0.119	0.235	0.297
25	NFIB	0.0709	0.26	0.29
26	THAP1	0.118	0.232	0.327
27	GLIS2	0.143	0.14	0.363
28	KRT7	0.186	0.571	0.959
29	MRPL16	0.0802	0.29	0.262
30	SPIB	0.133	0.162	0.482
31	ERO1A	0.0869	0.109	0.329
32	EPHX2	0.129	0.31	0.374
33	NANS	0.237	0.193	0.548
34	SCCPDH	0.111	0.0898	0.318
